The target in this assay is Rco1-9myc (Candida albicans). Briefly: co-IP; whole-cell extracts of strains coexpressing Rco1-9myc and a 3HA-tagged Rpd3, Rpd31 or Rpd31-T2 precipitated with anti-myc antibody, immunoblotted with anti-HA and anti-myc. In general terms: In western blotting, separated proteins are transferred to a membrane and probed.

Results are given in words; binding and its absence hold for the method and conditions named. Binding seen in cells or lysates may run through a third protein. Binding calls can cover weak binding; strength is not graded here.

B1: Rpd31-T2-3HA (domain or fragment, UniProt Q5ADP0 1-417)
chain: MYTELPFDELKVDPNQKKRIAYFYDADIGNYAYGAGHPMKPHRIRMAHSLIMNYGLYKKMEIYRAKPATKQEMCQFHTDEYIDFISRVNPDNLDLFTKEQIKFNVGDDCPVFDGLFEYCGISGGGSMEGAARLNRGKCDIAINYAGGLHHAKKSEASGFCYLNDIVLGIIELLRYHPRVLYIDIDVHHGDGVEEAFYTTDRVMTCSFHKYGEFFPGTGELRDIGVGKGKYHSVNVPLRDGIDDATYKSVFEPVISKIIEWYQPSAIVLQCGGDSLSGDRLGCFNLSMNGHANCINYVKSFNIPMMVVGGGGYTMRNVARTWAYESGLLNNVKLPDELPYNEYYEYYGPDYKLDVRSSNMFNQNSPEFLDKILTNIIANLENTKHAPSVQMNEVPNDPEDLGDVEEDTAMAIDTKGGS
On to B1, for which the binding result is on record as “no binding”.

B2: Rpd31-3HA (enzyme, UniProt Q5ADP0 1-577)
chain: MYTELPFDELKVDPNQKKRIAYFYDADIGNYAYGAGHPMKPHRIRMAHSLIMNYGLYKKMEIYRAKPATKQEMCQFHTDEYIDFISRVNPDNLDLFTKEQIKFNVGDDCPVFDGLFEYCGISGGGSMEGAARLNRGKCDIAINYAGGLHHAKKSEASGFCYLNDIVLGIIELLRYHPRVLYIDIDVHHGDGVEEAFYTTDRVMTCSFHKYGEFFPGTGELRDIGVGKGKYHSVNVPLRDGIDDATYKSVFEPVISKIIEWYQPSAIVLQCGGDSLSGDRLGCFNLSMNGHANCINYVKSFNIPMMVVGGGGYTMRNVARTWAYESGLLNNVKLPDELPYNEYYEYYGPDYKLDVRSSNMFNQNSPEFLDKILTNIIANLENTKHAPSVQMNEVPNDPEDLGDVEEDTAMAIDTKGGSEMSRDAQIQPDNEFYEDDEKDKGEKAIIDNKHEDQDSMQVDKSEEPVVEQKDKPQDENNVTGDNIEEDQPQEVNPIEEQPSVEKSVVVVEDKLEEVKPVEQKVEEPKEVVDKPEDKHEDKPAETLTETTTESKPEDQPMEDAAKLTEEELKEIEELNKSS
For B2, the binding result is recorded as “binds”.

Values taken from publication PMC5111407.
